Results: the supplement of paper PMC11006884
Only a part is listed here, and it is no random draw. This is a noisy data set.

Sequences of proteins named here, by UniProt entry; tags and fusion partners are left off. A change or cut given only in a name is not applied to a line headed by its entry.
UniProt Q8IWB7: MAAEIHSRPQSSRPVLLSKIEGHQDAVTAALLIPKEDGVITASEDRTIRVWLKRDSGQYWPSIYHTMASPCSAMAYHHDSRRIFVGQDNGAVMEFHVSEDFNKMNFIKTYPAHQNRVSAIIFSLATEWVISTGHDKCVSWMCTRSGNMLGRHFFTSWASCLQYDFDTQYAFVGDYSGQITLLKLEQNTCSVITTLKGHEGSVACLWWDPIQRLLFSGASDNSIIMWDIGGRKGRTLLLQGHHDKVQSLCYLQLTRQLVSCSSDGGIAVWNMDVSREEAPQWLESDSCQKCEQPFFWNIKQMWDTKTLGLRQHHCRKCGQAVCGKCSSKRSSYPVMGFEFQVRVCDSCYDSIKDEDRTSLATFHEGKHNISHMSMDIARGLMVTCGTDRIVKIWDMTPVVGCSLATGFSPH
UniProt Q86W42: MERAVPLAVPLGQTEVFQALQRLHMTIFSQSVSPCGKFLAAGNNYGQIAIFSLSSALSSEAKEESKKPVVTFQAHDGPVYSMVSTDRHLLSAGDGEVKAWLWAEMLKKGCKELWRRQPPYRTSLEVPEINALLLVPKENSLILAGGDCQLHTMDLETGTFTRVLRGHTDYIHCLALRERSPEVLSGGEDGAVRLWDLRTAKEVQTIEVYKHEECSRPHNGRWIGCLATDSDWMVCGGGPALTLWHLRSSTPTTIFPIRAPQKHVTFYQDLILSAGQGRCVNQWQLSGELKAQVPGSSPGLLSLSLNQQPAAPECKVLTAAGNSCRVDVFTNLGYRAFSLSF
UniProt Q8IYD1, whole entry: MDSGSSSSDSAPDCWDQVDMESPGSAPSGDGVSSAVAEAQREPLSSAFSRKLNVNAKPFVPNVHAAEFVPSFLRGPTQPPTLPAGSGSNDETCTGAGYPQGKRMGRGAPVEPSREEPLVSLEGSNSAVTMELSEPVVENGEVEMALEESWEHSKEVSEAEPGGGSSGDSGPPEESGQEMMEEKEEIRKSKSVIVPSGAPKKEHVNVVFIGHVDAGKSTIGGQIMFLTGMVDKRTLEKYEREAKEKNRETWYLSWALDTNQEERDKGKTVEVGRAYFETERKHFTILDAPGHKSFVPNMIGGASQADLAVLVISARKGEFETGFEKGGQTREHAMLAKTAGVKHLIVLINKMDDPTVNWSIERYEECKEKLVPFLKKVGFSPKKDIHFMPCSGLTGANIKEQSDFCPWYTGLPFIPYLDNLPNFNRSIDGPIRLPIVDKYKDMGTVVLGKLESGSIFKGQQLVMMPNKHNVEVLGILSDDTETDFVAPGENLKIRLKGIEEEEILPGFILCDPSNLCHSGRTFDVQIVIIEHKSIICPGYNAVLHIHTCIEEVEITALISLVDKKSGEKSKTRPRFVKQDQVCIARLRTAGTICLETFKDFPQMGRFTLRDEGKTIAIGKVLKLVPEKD
UniProt Q7Z434: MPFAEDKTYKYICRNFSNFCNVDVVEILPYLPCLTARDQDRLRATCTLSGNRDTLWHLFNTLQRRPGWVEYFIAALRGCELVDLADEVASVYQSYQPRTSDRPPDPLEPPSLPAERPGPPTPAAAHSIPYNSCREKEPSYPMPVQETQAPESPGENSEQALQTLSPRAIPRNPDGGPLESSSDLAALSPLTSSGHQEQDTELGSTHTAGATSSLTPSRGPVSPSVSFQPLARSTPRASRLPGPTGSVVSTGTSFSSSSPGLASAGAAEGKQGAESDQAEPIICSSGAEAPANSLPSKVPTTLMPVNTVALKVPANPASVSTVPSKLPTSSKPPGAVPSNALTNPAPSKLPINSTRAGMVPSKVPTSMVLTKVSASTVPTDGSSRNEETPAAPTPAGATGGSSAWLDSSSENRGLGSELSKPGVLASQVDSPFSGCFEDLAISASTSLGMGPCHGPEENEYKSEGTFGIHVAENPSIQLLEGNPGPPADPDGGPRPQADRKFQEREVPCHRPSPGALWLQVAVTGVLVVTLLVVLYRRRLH
UniProt Q7Z5L9: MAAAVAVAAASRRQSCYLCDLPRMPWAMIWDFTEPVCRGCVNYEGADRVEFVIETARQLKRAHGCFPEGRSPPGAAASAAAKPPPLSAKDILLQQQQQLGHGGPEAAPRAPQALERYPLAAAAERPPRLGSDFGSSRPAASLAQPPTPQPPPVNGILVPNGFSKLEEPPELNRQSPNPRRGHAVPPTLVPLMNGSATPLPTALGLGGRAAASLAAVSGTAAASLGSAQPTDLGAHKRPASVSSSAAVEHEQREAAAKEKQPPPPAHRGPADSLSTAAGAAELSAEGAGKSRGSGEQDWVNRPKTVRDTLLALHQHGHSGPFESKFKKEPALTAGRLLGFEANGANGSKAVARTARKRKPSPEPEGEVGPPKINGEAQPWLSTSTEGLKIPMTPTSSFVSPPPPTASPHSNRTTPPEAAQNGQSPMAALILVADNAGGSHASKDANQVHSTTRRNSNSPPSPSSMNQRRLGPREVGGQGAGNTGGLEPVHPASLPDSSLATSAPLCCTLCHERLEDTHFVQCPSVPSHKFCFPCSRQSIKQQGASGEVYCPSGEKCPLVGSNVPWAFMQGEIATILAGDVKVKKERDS
UniProt Q8IY18: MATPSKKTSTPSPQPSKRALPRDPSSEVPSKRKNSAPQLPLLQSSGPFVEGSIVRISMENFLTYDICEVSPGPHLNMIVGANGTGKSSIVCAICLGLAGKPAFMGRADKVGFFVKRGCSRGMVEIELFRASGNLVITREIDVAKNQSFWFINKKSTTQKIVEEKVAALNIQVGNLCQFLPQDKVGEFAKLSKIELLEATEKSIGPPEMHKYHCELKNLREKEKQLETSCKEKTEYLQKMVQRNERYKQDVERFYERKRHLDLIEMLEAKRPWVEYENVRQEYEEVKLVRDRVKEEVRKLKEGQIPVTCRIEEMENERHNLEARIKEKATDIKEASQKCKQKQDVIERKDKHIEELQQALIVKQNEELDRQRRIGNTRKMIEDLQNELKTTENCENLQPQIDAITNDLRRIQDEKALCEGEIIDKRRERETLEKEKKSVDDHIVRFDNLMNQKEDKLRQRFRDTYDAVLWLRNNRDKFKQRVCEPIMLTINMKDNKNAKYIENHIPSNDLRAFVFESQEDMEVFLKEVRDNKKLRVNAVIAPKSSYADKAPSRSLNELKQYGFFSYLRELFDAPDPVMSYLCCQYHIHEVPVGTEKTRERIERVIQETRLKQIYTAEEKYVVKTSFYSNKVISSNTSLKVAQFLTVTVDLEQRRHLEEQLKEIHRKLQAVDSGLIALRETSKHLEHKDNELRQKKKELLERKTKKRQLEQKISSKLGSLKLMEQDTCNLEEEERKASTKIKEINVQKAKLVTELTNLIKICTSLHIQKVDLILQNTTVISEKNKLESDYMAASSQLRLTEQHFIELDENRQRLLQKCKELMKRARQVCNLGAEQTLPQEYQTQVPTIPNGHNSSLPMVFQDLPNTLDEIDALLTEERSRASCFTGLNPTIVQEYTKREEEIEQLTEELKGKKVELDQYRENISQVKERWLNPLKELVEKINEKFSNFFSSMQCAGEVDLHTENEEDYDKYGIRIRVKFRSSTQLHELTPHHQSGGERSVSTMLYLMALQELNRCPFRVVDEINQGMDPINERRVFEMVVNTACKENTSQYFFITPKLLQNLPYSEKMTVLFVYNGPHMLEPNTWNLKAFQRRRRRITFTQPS
UniProt Q86UA6: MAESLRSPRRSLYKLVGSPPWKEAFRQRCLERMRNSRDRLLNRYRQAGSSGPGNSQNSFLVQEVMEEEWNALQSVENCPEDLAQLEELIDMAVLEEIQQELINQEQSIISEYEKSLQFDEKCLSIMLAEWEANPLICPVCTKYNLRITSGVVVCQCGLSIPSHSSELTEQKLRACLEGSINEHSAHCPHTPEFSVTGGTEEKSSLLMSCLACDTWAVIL
UniProt Q86VP6: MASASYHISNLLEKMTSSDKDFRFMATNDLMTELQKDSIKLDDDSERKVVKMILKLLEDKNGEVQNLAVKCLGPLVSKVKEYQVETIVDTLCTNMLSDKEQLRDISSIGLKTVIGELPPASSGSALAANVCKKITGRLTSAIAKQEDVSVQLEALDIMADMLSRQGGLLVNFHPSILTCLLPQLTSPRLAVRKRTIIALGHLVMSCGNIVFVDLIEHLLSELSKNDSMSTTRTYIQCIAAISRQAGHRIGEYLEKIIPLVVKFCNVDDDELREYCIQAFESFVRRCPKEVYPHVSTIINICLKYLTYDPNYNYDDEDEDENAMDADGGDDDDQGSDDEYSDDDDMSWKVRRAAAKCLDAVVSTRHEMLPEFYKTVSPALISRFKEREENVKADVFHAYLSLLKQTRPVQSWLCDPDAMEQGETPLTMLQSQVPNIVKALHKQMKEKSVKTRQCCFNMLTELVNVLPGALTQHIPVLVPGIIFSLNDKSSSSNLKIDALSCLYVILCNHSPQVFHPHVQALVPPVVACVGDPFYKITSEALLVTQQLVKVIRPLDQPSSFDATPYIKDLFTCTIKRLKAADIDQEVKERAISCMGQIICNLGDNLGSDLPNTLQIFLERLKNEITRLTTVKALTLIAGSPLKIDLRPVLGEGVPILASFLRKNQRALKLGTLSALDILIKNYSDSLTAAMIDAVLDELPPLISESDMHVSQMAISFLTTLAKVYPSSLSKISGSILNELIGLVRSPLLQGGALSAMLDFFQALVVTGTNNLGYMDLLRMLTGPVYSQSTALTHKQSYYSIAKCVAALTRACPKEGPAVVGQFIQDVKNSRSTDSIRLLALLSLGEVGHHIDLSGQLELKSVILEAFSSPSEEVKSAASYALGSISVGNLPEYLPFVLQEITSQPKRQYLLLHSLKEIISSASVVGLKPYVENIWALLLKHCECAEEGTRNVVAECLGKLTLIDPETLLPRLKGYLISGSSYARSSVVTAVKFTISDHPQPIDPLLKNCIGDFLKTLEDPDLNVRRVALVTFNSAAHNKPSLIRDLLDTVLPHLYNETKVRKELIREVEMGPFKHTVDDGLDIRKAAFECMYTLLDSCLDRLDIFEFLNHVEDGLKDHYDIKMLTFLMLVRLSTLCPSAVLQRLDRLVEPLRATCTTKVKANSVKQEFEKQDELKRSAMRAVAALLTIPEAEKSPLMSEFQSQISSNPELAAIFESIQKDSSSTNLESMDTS
UniProt Q7Z417: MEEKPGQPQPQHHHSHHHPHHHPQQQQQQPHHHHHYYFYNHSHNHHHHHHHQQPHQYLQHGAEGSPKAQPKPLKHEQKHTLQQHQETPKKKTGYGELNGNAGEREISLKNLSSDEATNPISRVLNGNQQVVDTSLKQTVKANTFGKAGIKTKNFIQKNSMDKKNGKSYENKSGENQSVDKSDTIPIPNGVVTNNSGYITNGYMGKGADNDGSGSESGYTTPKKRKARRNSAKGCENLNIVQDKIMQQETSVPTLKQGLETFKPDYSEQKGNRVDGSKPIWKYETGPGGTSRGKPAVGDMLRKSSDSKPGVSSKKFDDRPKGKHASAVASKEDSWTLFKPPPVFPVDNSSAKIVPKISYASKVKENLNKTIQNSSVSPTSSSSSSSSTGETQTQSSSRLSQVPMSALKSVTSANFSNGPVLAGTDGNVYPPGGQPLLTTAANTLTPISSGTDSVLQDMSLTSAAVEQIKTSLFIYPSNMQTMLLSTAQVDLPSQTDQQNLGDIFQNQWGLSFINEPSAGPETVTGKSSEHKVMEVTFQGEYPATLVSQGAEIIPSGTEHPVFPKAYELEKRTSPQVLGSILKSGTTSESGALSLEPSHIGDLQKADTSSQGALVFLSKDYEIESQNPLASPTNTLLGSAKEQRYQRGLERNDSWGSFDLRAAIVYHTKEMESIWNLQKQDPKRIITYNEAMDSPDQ
UniProt Q8IY95: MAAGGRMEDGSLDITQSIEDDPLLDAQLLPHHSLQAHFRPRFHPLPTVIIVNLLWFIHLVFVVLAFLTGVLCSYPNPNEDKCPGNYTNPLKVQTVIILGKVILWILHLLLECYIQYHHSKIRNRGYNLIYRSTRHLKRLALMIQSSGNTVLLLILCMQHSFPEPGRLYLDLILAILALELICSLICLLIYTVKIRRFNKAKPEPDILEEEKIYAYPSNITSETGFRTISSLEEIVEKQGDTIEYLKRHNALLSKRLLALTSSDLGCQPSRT
UniProt Q8IWS0: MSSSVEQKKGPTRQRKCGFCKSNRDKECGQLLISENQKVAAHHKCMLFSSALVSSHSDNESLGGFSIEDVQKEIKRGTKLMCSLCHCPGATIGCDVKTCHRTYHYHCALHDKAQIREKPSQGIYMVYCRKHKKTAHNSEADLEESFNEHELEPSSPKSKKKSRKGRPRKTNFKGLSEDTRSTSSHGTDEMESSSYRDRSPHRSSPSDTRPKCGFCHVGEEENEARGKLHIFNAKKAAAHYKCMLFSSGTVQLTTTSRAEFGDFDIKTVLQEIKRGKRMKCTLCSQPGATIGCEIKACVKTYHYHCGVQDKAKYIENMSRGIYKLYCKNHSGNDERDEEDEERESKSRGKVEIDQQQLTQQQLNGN
UniProt Q7RTV0, whole entry, looked up: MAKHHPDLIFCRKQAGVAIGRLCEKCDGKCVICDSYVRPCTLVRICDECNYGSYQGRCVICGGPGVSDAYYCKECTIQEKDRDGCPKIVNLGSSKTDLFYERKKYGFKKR

compound: COC(=O)/C=C/c1ccccc1 [methyl cinnamate]; experiment: log2 ratio of iodoacetamide-alkyne labeling of the cysteine site, DMSO over compound (competition); higher = stronger covalent engagement of the cysteine by the compound, active = 1 or more; details: 500 µM; treatment time 1 h; system: HEK293T cell lysate
Outline: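 HEK293T lysate (2 mg/mL) was treated with DMSO or electrophile (500 µM, 1 h, ambient temperature), then iodoacetamide alkyne (1 h), clicked to sCIP-TMT reagents, pooled, trypsin-digested overnight at 37 °C, streptavidin-enriched and acid-eluted. Peptides were run on Orbitrap Eclipse LC-MS/MS with FAIMS and quantified in FragPipe. The log2 competition ratio per cysteine is mean control-channel over mean compound-channel reporter intensity. Duplicate channels and three replicates were used, and cysteines quantified in only one replicate were excluded.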

log2 ratio of iodoacetamide-alkyne labeling, inactive:
WDFY1 C287 (UniProt Q8IWB7) 0.216
THOC6 C279 (UniProt Q86W42) 0.275
UniProt Q8IY26_C55 0.442
DHX30 C286 (UniProt Q7L2E3) -0.0543
PHLDB2 C385 (UniProt Q86SQ0) 0.447
GSPT2 C93 (UniProt Q8IYD1) 0.444
GCC2 C297 (UniProt Q8IWJ2) 0.295
UniProt Q7Z434_C133 0.32
IRF2BP2 C19 (UniProt Q7Z5L9) 0.12
UniProt Q7LBC6_C509 0.379
UniProt Q7Z434_C46 -0.167
ANKHD1 C777 (UniProt Q8IWZ3) -0.142
IRF2BP1 C36 (UniProt Q8IU81) 0.00936
PXK C570 (UniProt Q7Z7A4) 0.313
IRF2BP2 C37 (UniProt Q7Z5L9) -0.0956
SMC5 C881 (UniProt Q8IY18) 0.153
RPAIN C175 (UniProt Q86UA6) 0.0438
CAND1 C356 (UniProt Q86VP6) 0.18
NUFIP2 C234 (UniProt Q7Z417) 0.0578
TMEM192 C266 (UniProt Q8IY95) 0.161
PHF6 C28 (UniProt Q8IWS0) 0.202
UniProt Q7RTV0_C61 0.272

Quoted from above for reference:
log2 ratio of iodoacetamide-alkyne labeling, inactive:
UniProt Q7LBC6_C509 0.379
UniProt Q7Z434_C46 -0.167
ANKHD1 C777 (UniProt Q8IWZ3) -0.142
IRF2BP1 C36 (UniProt Q8IU81) 0.00936
